Measured values published in PubChem BioAssay AID540276 (National Center for Advancing Translational Sciences (NCATS), 2011).
Where “and” joins values, the source holds several entries; their conditions need not be identical. Equal entries are not always repeated. The whole screen tested about 300,000 compounds, of which about 5,400 (1.8%) were called active. The shares of active, inactive and inconclusive entries below differ from those in the screen. Calls follow the shape of the full dose curve; tested in HEK293 cells. A potency beside an inconclusive call is a rough fit, not a confirmed value.

Assay: qHTS for inhibitors of binding or entry into cells for Marburg Virus
Conditions: Marburg virus pseudotyped entry inhibition, cell reporter; series mostly up to 37.8 µM
Potency is read from the fitted curve at half-maximal effect.

Structure (SMILES)	Potency
Cc1ccc(C2(C)NC(=O)N(CC(=O)NC(=O)NC(C)(C)C)C2=O)cc1 (configuration not stated)	inactive
CC(C)=CCCC(C)=CCON=C1C[C@@H](O)[C@@H](O)[C@@H]2[C@H]3C(=O)N(C[C@@H]4CCCO4)C(=O)[C@@H]3CC[C@H]12	inactive
O=C(Nc1ccccc1C(F)(F)F)c1noc2c1CCCC2	inconclusive: 7.08 µM [activator, partial curve]
CC(=O)OC[C@H]1O[C@@H](ON=C2C[C@@H](O)[C@@H](O)[C@@H]3[C@H]4C(=O)N(Cc5ccccc5)C(=O)[C@@H]4CC[C@@H]23)[C@H](OC(C)=O)[C@@H](OC(C)=O)[C@H]1OC(C)=O	inactive
COC(=O)NCC(C)OC(=O)Nc1cccc(Cl)c1 (configuration not stated)	inconclusive: 28.2 µM [activator, single point]
CCN(C(=O)Cn1cc(S(=O)(=O)N2CCN(c3ccccc3F)CC2)c2ccccc2c1=O)c1ccc(C)c(C)c1	inconclusive: 12.6 µM [inhibitor, partial curve, poor fit]
Cc1ccccc1N(C=O)c1ccccc1C	inactive
CS(=O)(=O)N1CCN(c2ccc(NC(=O)Cc3ccccc3)cc2)CC1	inactive
O=C(OCC(=O)N1CCCc2ccccc21)c1cnc(Cl)c(Cl)c1	inactive
Cc1ccc(S(=O)(=O)c2nnn3c2nc(N2CCCC(C)C2)c2cc(Cl)ccc23)cc1C (configuration not stated)	inactive
CN(C)C(=O)c1cc(C(=O)c2ccc(Cl)cc2Cl)c[nH]1	inconclusive: 35.5 µM [inhibitor, single point]
O=C(c1ccccc1)N(Cc1cccs1)C1CCS(=O)(=O)C1 (configuration not stated)	inactive
COc1ccccc1NC(=O)CCC(=O)c1ccc(-c2ccccc2)cc1	inactive
CN(N)C(=S)Nc1ccc(F)cc1	inconclusive: 3.55 µM [inhibitor, single point]
COc1ccc(Oc2coc3cc(OC(=O)/C=C/c4ccccc4)ccc3c2=O)cc1	inactive
Cc1ccc(-n2c(=O)c3c(C)c(C)sc3n(Cc3cc(=O)n4ccccc4n3)c2=O)cc1C	inconclusive: 2.31 µM [activator, partial curve, poor fit]
O=c1[nH]c(SCc2ccccc2)nc2[nH]ncc12	inactive
COc1ccc(COC(=O)c2ccc(S(=O)(=O)N3CCC(C)CC3)cc2)cc1	inactive
COCCCNC(=O)/C(C#N)=C1\N=C(NC(=O)c2cccs2)c2ccccc21	inconclusive: 15.8 µM [activator, single point]
O=C(CNc1ccc2ccccc2c1)N/N=C/C=C/c1cccc([N+](=O)[O-])c1	inconclusive: 1.12 µM [inhibitor, full curve, poor fit]
Cc1ccccc1NC(=O)CSc1n[nH]c(-c2ccco2)n1	inactive
O=[N+]([O-])c1cc(S(=O)(=O)Nc2ccccc2)ccc1NCc1ccccc1	inconclusive: 1.26 µM [activator, single point]
CCOC(=O)c1c(-c2ccc(C)o2)csc1NC(=O)CSc1nnnn1-c1ccccc1	inactive and inconclusive: 3.26 µM [inhibitor, partial curve, poor fit]

Structure (SMILES)	Potency
COc1cccc(C(=O)C2CCCN(C(=O)c3cccc(C#CC(C)(C)O)c3)C2)c1 (configuration not stated)	inactive
O=c1c2c3nc4ccccc4nc3n(/N=C/c3ccccn3)c2ncn1-c1ccccc1	active: 5.62 µM
Cc1ccc(/C=C/C(=O)NC(=S)Nc2ccccc2C(=O)NC2CCCCC2)cc1	inconclusive: 16.4 µM [inhibitor, single point]
Cc1ccc2nc(-c3cccc(NC(=O)CSc4ccc(Cl)cc4)c3)oc2c1	inconclusive: 2.82 µM [activator, partial curve, poor fit]
COc1ccc(Br)cc1/C=C/C(=O)Nc1ccc2ccccc2c1	inconclusive: 35.5 µM [inhibitor, single point]
NC(=O)NC(CC(=O)NCCCc1ccccc1)c1ccccc1Cl (configuration not stated)	inconclusive: 0.631 µM [inhibitor, full curve, poor fit]
CC(=O)N(c1ccc(Cl)cc1)c1c[nH]c2ccccc12	inconclusive: 20.6 µM [inhibitor, single point]
CN(CC(=O)OCC(=O)c1c(N)n(C)c(=O)n(C)c1=O)S(=O)(=O)c1ccc(Cl)cc1	inconclusive: 0.562 µM [inhibitor, full curve, poor fit]
O=C(c1cccc(F)c1)N1CCN(c2cccc(Cl)c2)CC1	inconclusive: 0.398 µM [inhibitor, partial curve, poor fit]
CC1(C)CCc2nc(SCc3ccccc3)c(C#N)cc2C1	inconclusive: 7.3 µM [activator, partial curve, poor fit]
CCN(CC)CCNC(=O)/C(=C/c1cn(C)c2ccccc12)NC(=O)c1ccc(OC)c(OC)c1	inconclusive: 7.94 µM [inhibitor, partial curve, poor fit]
CC(C)(CCO)NC(=S)NC1CC2C=CC1C2 (configuration not stated)	inconclusive: 0.708 µM [activator, partial curve, poor fit]
CC(C)(C)NC(=O)C(=O)NCCC1=CCCCC1	inconclusive: 35.5 µM [activator, partial curve, poor fit]
COc1ccc(S(=O)(=O)NCCSCc2ccco2)cc1Cl	inconclusive: 0.708 µM [activator, partial curve, poor fit]
CCCOc1ccccc1/C=C(\C#N)C(=O)Nc1cccnc1	inconclusive: 3.55 µM [activator, partial curve, poor fit]
CCC(C)(C)NC(=O)c1ccc2c(c1)N(CC(=O)OC)C(=O)C(C)(C)O2	inconclusive: 0.259 µM [inhibitor, single point]
COCCn1c(=NC(=O)CCS(=O)(=O)c2ccccc2)sc2cc(F)ccc21	inactive
Cc1cc(C)cc(OCC(=O)Nc2ccc(F)cc2)c1	inactive
CC(C)CNC(=O)C(=O)Nc1ccc2c(c1)N(S(=O)(=O)c1cccs1)CCC2	active: 3.16 µM
Cc1[nH]c2ccccc2c1SCc1nnc(SCc2ccccc2)n1C	inconclusive: 6.31 µM [inhibitor, single point]
COc1cccc(N2CCN(CC(=O)Nc3nc(C)c(C(=O)N(C)C)s3)CC2)c1	inconclusive: 2.24 µM [activator, partial curve, poor fit]
CC(c1ccco1)N(C(=O)c1ccc(Cl)s1)c1ccccn1 (configuration not stated)	inactive
COc1ccccc1/C=N/n1nnnc1N	inconclusive: 6.31 µM [inhibitor, single point]

Structure (SMILES)	Potency
Cc1cc(C)cc(NS(=O)(=O)c2c(C)nc3scc(C)n3c2=O)c1	inconclusive: 4.47 µM [inhibitor, single point]
CCN(CC)CCNC(=O)c1ccccc1C(=O)c1ncc[nH]1	inactive
Cc1ccc(C(c2nnnn2CC2CCCO2)N2CCN(c3cccc(C)c3C)CC2)cc1 (configuration not stated)	inconclusive: 11.2 µM [inhibitor, partial curve, poor fit]
O=C(Nc1ccc(-c2csc(-c3ccccc3)n2)cc1)c1ccccc1	inconclusive: 5.8 µM [inhibitor, full curve]
Cc1ccc(CNc2nc(N)c([N+](=O)[O-])c(Nc3cccc(F)c3)n2)cc1	inconclusive: 18.3 µM [inhibitor, single point]
CN(C)c1cc(N/N=C/c2ccc(Cl)cc2)nc(N(C)C)n1	inconclusive: 16.4 µM [inhibitor, partial curve, poor fit]
O=C(OCCN1C(=O)c2cccc3c(N4CCOCC4)ccc(c23)C1=O)c1ccccc1Cl	active: 7.08 µM
Cc1c(C#N)c(N)nc2c3c(sc12)NC(=O)CC3c1ccc(F)cc1 (configuration not stated)	inconclusive: 0.316 µM [activator, partial curve, poor fit]
Cc1c(Cl)cccc1NC(=S)Nc1ccccn1	inconclusive: 1.58 µM [activator, partial curve, poor fit]
CCOc1ccc(N(CC(=O)NCCC2=CCCCC2)S(=O)(=O)c2ccccc2)cc1	inconclusive: 22.4 µM [inhibitor, single point]
CCOc1ncccc1C(=O)Nc1ccc(S(=O)(=O)NC2=NCCCCC2)cc1	inactive
Cc1[nH]c2ccccc2c1C(=O)CN1CCC2(CC1)OCCO2	inactive
O=C(CNC(=O)c1ccc(Cl)cc1)OCCCOC(=O)CNC(=O)c1ccc(Cl)cc1	inactive
CCOc1cc(C=C2C(=O)c3ccccc3C2=O)ccc1OCC(=O)Nc1ccc(C)cc1	inconclusive: 35.5 µM [activator, single point]
CC(/C=N/NC(=O)NC1CCCCC1)=C\c1ccccc1	inconclusive: 35.5 µM [inhibitor, single point]
Cc1cc(C)cc(NS(=O)(=O)c2cnc(Cl)c(Cl)c2)c1	inactive
O=C(CCc1ccccc1)Nc1ccncc1	inactive
CC(C)(C)c1ccc(S(=O)(=O)c2cnc(SCC(=O)Nc3ccc4c(c3)OCCO4)[nH]c2=O)cc1	inconclusive: 3.16 µM [activator, single point]
COc1ccc(-c2noc(C3CCCN(C(=O)c4c(F)cccc4F)C3)n2)cc1OC (configuration not stated)	inconclusive: 11.2 µM [activator, partial curve, poor fit]
Cc1nn(-c2ccccc2)nc1C(=O)c1c(C)[nH]n(-c2ccccc2)c1=O	inactive
COc1ccc(C(c2nnnn2Cc2cccs2)N2CCN(c3ccccc3F)CC2)cc1 (configuration not stated)	inactive and inconclusive: 10 µM [inhibitor, partial curve, poor fit]

Nothing new here: entries from further up.
Structure (SMILES)	Potency
O=C(OCCN1C(=O)c2cccc3c(N4CCOCC4)ccc(c23)C1=O)c1ccccc1Cl	active: 7.08 µM
Cc1c(C#N)c(N)nc2c3c(sc12)NC(=O)CC3c1ccc(F)cc1 (configuration not stated)	inconclusive: 0.316 µM [activator, partial curve, poor fit]
Cc1c(Cl)cccc1NC(=S)Nc1ccccn1	inconclusive: 1.58 µM [activator, partial curve, poor fit]
CCOc1ccc(N(CC(=O)NCCC2=CCCCC2)S(=O)(=O)c2ccccc2)cc1	inconclusive: 22.4 µM [inhibitor, single point]
CCOc1ncccc1C(=O)Nc1ccc(S(=O)(=O)NC2=NCCCCC2)cc1	inactive
Cc1[nH]c2ccccc2c1C(=O)CN1CCC2(CC1)OCCO2	inactive
O=C(CNC(=O)c1ccc(Cl)cc1)OCCCOC(=O)CNC(=O)c1ccc(Cl)cc1	inactive
CCOc1cc(C=C2C(=O)c3ccccc3C2=O)ccc1OCC(=O)Nc1ccc(C)cc1	inconclusive: 35.5 µM [activator, single point]
CC(/C=N/NC(=O)NC1CCCCC1)=C\c1ccccc1	inconclusive: 35.5 µM [inhibitor, single point]
Cc1cc(C)cc(NS(=O)(=O)c2cnc(Cl)c(Cl)c2)c1	inactive
O=C(CCc1ccccc1)Nc1ccncc1	inactive
CC(C)(C)c1ccc(S(=O)(=O)c2cnc(SCC(=O)Nc3ccc4c(c3)OCCO4)[nH]c2=O)cc1	inconclusive: 3.16 µM [activator, single point]
COc1ccc(-c2noc(C3CCCN(C(=O)c4c(F)cccc4F)C3)n2)cc1OC (configuration not stated)	inconclusive: 11.2 µM [activator, partial curve, poor fit]
Cc1nn(-c2ccccc2)nc1C(=O)c1c(C)[nH]n(-c2ccccc2)c1=O	inactive
